The campaign covered roughly 320,000 compounds. About 2,100 (0.66%) were called active. The shares of active, inactive and inconclusive entries below differ from those in the screen. Calls come from the whole dose curve; as a rule, active = well fitted inhibition curve with a large enough effect in the signal ratio, with a control signal flat (not every such curve was filed as active); inconclusive = small, poorly fitted or top-dose-only effect, or effect the other way, or a change in a side signal; inactive = flat fitted curve, though single readings scatter; the % refers to the signal ratio. A potency beside an inconclusive call is a rough fit, not a confirmed value.
Assay: qHTS Assay for Lipid Storage Modulators in Drosophila S3 Cells
Settings: BODIPY lipid droplet fluorescence, 18-24 h, cells fed with added oleic acid; lipid storage change, negative = inhibition: at 46.1 µM (top of the series) unless noted
Method in brief: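 Laser-scanning cytometry quantifies lipid droplet accumulation (500–530 nm total intensity; droplet/cell object ratio) in oleic acid-fed (400 uM added) Drosophila S3 cells treated with a concentration series. 20 uM Triacsin C defined 100% inhibition.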
% is set by controls: 0 for no effect and ±100 for the full control effect; potency is the fitted concentration of half-maximal effect.

Row | SMILES | Potency | lipid storage change, negative = inhibition
1 | O=C(CN1CCOCC1)NCc1ccc(F)cc1 | inconclusive: 32.6 µM [activator, single point] | –
2 | Cc1cc(C)n(-c2ccc(NC(=O)C3CCCCN3C(=O)c3cccs3)cc2)n1 (centres undefined) | inconclusive: 0.0052 µM [falling, full curve, poor fit] | –
3 | N#CC1=C(SCC(=O)NC23CC4CC(CC(C4)C2)C3)NC(=O)C(C#N)C12CCCCC2 (centres undefined) | – | inconclusive: -28.1%
4 | CC(C)c1ccc(Nc2nc(Cl)nc(Cl)n2)cc1 | inconclusive: 0.0046 µM [activator, full curve, poor fit] | –
5 | COc1ccc(C2NC(=S)N3C(c4ccc(OC)cc4)NC(=S)N23)cc1 (centres undefined) | – | inconclusive: 38.5%
6 | O=c1c(Cl)c(N2CCN(c3ccc(F)cc3)CC2)cnn1C12CC3CC(CC(C3)C1)C2 | – | inconclusive: -19.7%
7 | COc1ccc(NC(=O)COC(C)=O)cc1OC | – | inconclusive: 13.2%
8 | COC(=O)CCCCCCCCCC[N+]1(C)CCCCC1 | – | inactive
9 | O=C(Nc1cc(C(F)(F)F)ccc1N1CCOCC1)c1ccc(F)cc1 | inconclusive: 7.31 µM [activator, partial curve] | –
10 | CC(=O)c1cnc2scnn2c1=O | – | inconclusive: -33.9%
11 | Cc1ccc(SCC(=O)OCc2csc(CC(=O)Nc3ccccc3C)n2)cc1C | – | inactive
12 | Cc1ccc(C(=O)N/N=C/c2ccc(-c3ccccc3[N+](=O)[O-])o2)cn1 | – | inconclusive: -50.3%
13 | CS(=O)(=O)N1CCC(C(=O)Nc2cccc(F)c2)CC1 | inconclusive: 0.651 µM [activator, full curve, poor fit] | –
14 | COc1ccc(/C=N/NC(=S)Nc2ccccc2)cc1COc1ccc(F)cc1 | – | inconclusive: -30.1%
15 | Cc1ccc(S(=O)(=O)N(CC(=O)Nc2ccc(C)cc2C)C(=O)N2CCN(C)CC2)cc1 | – | inconclusive: -3.32%
16 | Cc1ccc(S(=O)(=O)Nc2nc3ccccc3nc2NCC2CCCO2)cc1 (centres undefined) | – | inconclusive: 18.5%
17 | Cc1c(O)c(CN2CCCCC2)cc2c3c(c(=O)oc12)CCC3 | inconclusive: 1.16 µM [activator, single point] | –
18 | CCOCCCNC(=S)N(CCO)Cc1cc2cc3c(cc2[nH]c1=O)OCCO3 | inconclusive: 23.1 µM [falling, single point] | –
19 | Cc1c(C#N)c(N)nc2c3c(sc12)NC(=O)CC3c1ccccc1 (centres undefined) | – | inconclusive: -94.1%
20 | CN1/C(=C\C(=O)c2cccs2)Sc2ccccc21 | – | inactive
21 | CN1C(=O)CC(Sc2ncccc2C(=O)O)C1=O (centres undefined) | – | inconclusive: -16.7%
22 | COCCNC(=O)CN(C(=O)CCC(=O)Nc1nccs1)c1ccc2c(c1)OCO2 | – | inconclusive: -8.47%
23 | COc1ccc(C(=O)/C=C(\N)C(F)(F)F)c(O)c1 | – | inconclusive: 57.1%
24 | CC1(c2ccccc2Cl)NC(=O)N(CC(=O)Nc2ccc(N3CCCCC3)cc2)C1=O (centres undefined) | – | inconclusive
25 | O=C(c1ccccc1)N1CCN(C(=O)c2ccc(OC(F)(F)F)cc2)CC1 | – | inconclusive: 1.31%
26 | O=C(Nc1ccc([N+](=O)[O-])cc1)Nc1ccc2[nH]c(=O)[nH]c2c1 | – | inconclusive: -48.5% [at 0.369 µM]
27 | Cc1ccc(N2CCCn3c2nc2c3c(=O)n(CC(=O)OCc3ccccc3)c(=O)n2C)cc1C | inconclusive: 1.03 µM [activator, partial curve, poor fit] | –

Row | SMILES | Potency | lipid storage change, negative = inhibition
28 | COc1ccc(NC(=O)CSc2ccc3c(c2)OCCO3)cc1OC | – | inconclusive: -51%
29 | CCOc1ccc(N(CC(=O)Nc2ccccc2OC)S(=O)(=O)c2ccccc2)cc1 | inconclusive: 14.6 µM [activator, partial curve] | –
30 | Cc1occc1C(=O)N1CCCC(Nc2ccc(F)cc2)C1 (centres undefined) | inconclusive: 3.66 µM [activator, full curve] | –
31 | Cc1cc2c(cc1C)C(c1ccccc1OC(C)C)CC(=O)N2 (centres undefined) | – | inconclusive: -61.2%
32 | Cc1noc(NS(=O)(=O)c2ccc(NC(=O)CCn3c(=O)oc4ccccc43)cc2)c1C | – | inactive
33 | CNNC(=O)C(=O)NNS(=O)(=O)c1ccccc1 | – | inconclusive: -54.1%
34 | O=C(Nc1cccc2ncccc12)c1cc2ccccc2o1 | inconclusive: 5.17 µM [activator, partial curve] | –
35 | c1ccc(Nc2nc(-c3ccncc3)cs2)nc1 | inconclusive: 0.291 µM [activator, full curve] | –
36 | CCC(C)c1ccc(N(C(=O)c2ccco2)C(C(=O)NC2CCCC2)c2cccnc2)cc1 (centres undefined) | – | inconclusive: -140%
37 | CN(C)CCCNC(=O)/C=C/c1ccc(OCc2c(F)cccc2Cl)cc1 | – | inconclusive: 11%
38 | O=S(=O)(c1cccc2nsnc12)N1CCN(c2ncccn2)CC1 | – | inconclusive: 25.8%
39 | COc1ccc(-c2cc(C(=O)Nc3ccc(C)cc3)no2)cc1 | inconclusive: 1.16 µM [activator, partial curve] | –
40 | O=C(Nc1nc(-c2cccc(Br)c2)cs1)Oc1ccccc1 | – | inconclusive: 133%
41 | CCOC(=O)c1cnc(N2CCOCC2)[nH]c1=O | – | inconclusive: -44.9%
42 | Cc1cc(NC(=O)CSc2nnc3c(C)cc4c(C)ccc(C)c4n23)no1 | – | inconclusive: 31.6%
43 | CC(C)CN(C(=O)Cn1ccccc1=O)C1CCS(=O)(=O)C1 (centres undefined) | – | inconclusive: -16.9%
44 | NC(=O)c1cc(Cl)ccc1OCC(=O)Nc1ccc2c(c1)OCO2 | – | inconclusive: -15%
45 | Cc1cccc(-c2oc3ccccc3c2-c2ccc3c(c2)OCO3)c1 | inconclusive: 14.6 µM [activator, partial curve] | –
46 | COc1cc(C2CC(c3c(C)cc(C)[nH]c3=O)=NN2c2ccccc2F)cc(OC)c1OC (centres undefined) | – | inconclusive: -160%
47 | O=C(O)c1ccc(N/N=C/c2ccc(-c3cccc(Cl)c3)o2)cc1 | – | inconclusive: 26.6%
48 | CCOc1ccc2nc(SCc3ccc(OC)cc3)sc2c1 | inconclusive: 13 µM [activator, partial curve, poor fit] | –
49 | CCOC(=O)N1CCc2c(sc(NC(=O)CCS(=O)(=O)c3ccccc3)c2C(N)=O)C1 | – | inconclusive: -100%
50 | Cc1sc(NC(=O)C2CCCCC2)c(C#N)c1-c1ccccc1 | – | inconclusive: -6.99%
51 | CCC(c1nnc(SCC(=O)Nc2cccnc2Cl)n1-c1ccccc1)N(C)C (centres undefined) | – | inconclusive: -18.1%
52 | Cc1ccc(N2CCN(S(=O)(=O)N3CCCCC3)CC2)cc1Cl | – | inconclusive: 13.2%
53 | CCOC(=O)c1c(CN2CCOCC2)oc2ccc(OC(C)=O)cc12 | – | inconclusive: 29.7%
54 | CCN1CCN(CCCNC(=O)CCC(=O)N2CC(C)Oc3ccc(C)cc32)CC1 (centres undefined) | – | inconclusive: -11.8%

Row | SMILES | Potency | lipid storage change, negative = inhibition
55 | Cc1sc2ncn(CC(=O)NCC(=O)N(C)C3CCCCC3)c(=O)c2c1C | – | inconclusive: -0.863%
56 | COc1ccc(S(=O)(=O)N(CC(=O)NCc2ccncc2)c2ccc(C)cc2)cc1OC | inconclusive: 0.092 µM [falling, full curve, poor fit] | –
57 | COC(=O)CCN(C(=O)C1C2CC3CC(C2)CC1C3)c1ccccn1 (centres undefined) | inconclusive: 7.31 µM [falling, partial curve] | –
58 | COc1ccc(-n2cnc3scc(-c4ccccc4)c3c2=O)cc1 | – | inconclusive: -20.1%
59 | O=C(NCCc1ccc(F)cc1)c1cc([N+](=O)[O-])ccc1N1CCOCC1 | – | inconclusive: 41.5%
60 | CC1Cc2cc(/C(O)=C3/C(=O)C(=O)N(CCCn4ccnc4)C3c3ccco3)ccc2O1 (centres undefined) | – | inconclusive: -5.36%
61 | O=C(CCCc1ccccc1)NCc1ccc(Cl)cc1 | – | inconclusive: 55.1%
62 | COc1ccc(C(=O)OC(C)C(=O)NCC2CCCCC2)cc1S(=O)(=O)N1CCOCC1 (centres undefined) | – | inconclusive: 57.8%
63 | Cc1cc(C)n(C(C)Sc2ccccc2)n1 (centres undefined) | – | inconclusive: 13.9%
64 | Cc1onc(-c2ccccc2)c1C(=O)Nc1nnc(C(C)C)s1 | inconclusive: 29.1 µM [activator, single point] | –
65 | O=C(CCc1ccccc1)NC(=S)Nc1ccccc1Br | – | inconclusive: -44.1% [at 0.00295 µM]
66 | Cc1nn(C)c(C(=O)N2CCN(C(=O)c3ccco3)CC2)c1Br | inconclusive: 32.6 µM [falling, single point] | –
67 | CCCCn1c(=NC(=O)c2cccnc2)c(C#N)cc2c(=O)n3cccc(C)c3nc21 | – | inconclusive: -3.48%
68 | CCc1cc(C(=O)NNC(=O)c2csc(N3CCOCC3)n2)sc1C | – | inconclusive
69 | CN(CCC(=O)Nc1ccc2c(c1)OCO2)Cc1ccccc1 | – | inconclusive: 11.9%
70 | Cc1ccc(-c2nc(-c3ccccn3)no2)cc1[N+](=O)[O-] | – | inconclusive: 2.72%
71 | O=C(COc1ccccc1[N+](=O)[O-])N/N=C/c1ccc[nH]1 | – | inconclusive: 20.2%
72 | Nc1nc(Cl)cc(Nc2ccccc2Cl)n1 | inconclusive: 20.6 µM [activator, single point] | –
73 | CC(=O)N1CCN(c2ccc(NC(=O)c3ccc4c(c3)OCCO4)cc2)CC1 | – | inconclusive: -4.55%
74 | CC1(C)CC(=O)/C(=C(/O)Cc2ccccc2)C(=NCCc2ccccc2)C1 | – | inconclusive: 25.2%
75 | COc1ccc(NC(=O)C(=O)Nc2cccc3cccnc23)c(OC)c1 | – | inconclusive: 26.2%
76 | CCOc1ccc2nc(NC(=O)c3cccnc3)sc2c1 | inconclusive: 0.731 µM [activator, full curve, poor fit] | –
77 | Cc1cc(C)cc(N(CCC#N)C(=O)COC(=O)CN2C(=O)NC(C)(C)C2=O)c1 | – | inconclusive
78 | CC(=O)Cc1cc(O)c2ccccc2c1OC(=O)c1ccccc1 | – | inconclusive: -57.2%
79 | Cc1ccnc(NC(=O)c2ccc([N+](=O)[O-])s2)c1 | active: 11.2 µM | –

Five records picked at random from those above:
Row | SMILES | Potency | lipid storage change, negative = inhibition
65 | O=C(CCc1ccccc1)NC(=S)Nc1ccccc1Br | – | inconclusive: -44.1% [at 0.00295 µM]
73 | CC(=O)N1CCN(c2ccc(NC(=O)c3ccc4c(c3)OCCO4)cc2)CC1 | – | inconclusive: -4.55%
46 | COc1cc(C2CC(c3c(C)cc(C)[nH]c3=O)=NN2c2ccccc2F)cc(OC)c1OC (centres undefined) | – | inconclusive: -160%
35 | c1ccc(Nc2nc(-c3ccncc3)cs2)nc1 | inconclusive: 0.291 µM [activator, full curve] | –
75 | COc1ccc(NC(=O)C(=O)Nc2cccc3cccnc23)c(OC)c1 | – | inconclusive: 26.2%

Reference: PubChem BioAssay AID2685 (National Center for Advancing Translational Sciences (NCATS), 2010)
